The list is a part of this screen's results and no random one: it gathers tests that were run many times, whatever their T/C, doses with no T/C, and many T/C values between a quarter and a half above the control. Further doses and runs are listed elsewhere. T/C is the treated group as % of the vehicle group. Some entries give survivors of the animals treated and no T/C: the source files T/C as zero there, which appears to mark a toxic dose or a test without result, not a measured value. Some doses without a T/C left all or most animals alive at the check, yet need not have been tolerated: survival well below the control is almost never listed, so the zero probably covers shortened survival too. Counts of survivors are from the toxicity check (mostly the fifth day) where no day follows; animals may have died later. Schedule codes are those of the source, taken here to give the interval after Q, in days (D) or hours (H), and the number of doses after X. Some entries hold several experiments; the values are given in rising order. Some schedule codes hold Z or #, which are not explained here. Some structures stand for samples that the source files as different forms (salt, stereo form or complex); doses refer to the form tested. Additions like (4×) count equal records among those shown. Where survival is the endpoint, this PubChem deposit counts one and a half times the control or more as active, and values a quarter to a half above the control carry no call in these data; other NCI protocols may use other cut-offs. Some T/C values are followed by the survivors on the day toxicity was checked, most often the fifth; without a count, all were alive then.
Test system: L1210 leukemia ip in BDF1 mice, survival T/C
Assay: NCI In Vivo Anticancer Drug Screen. Data for tumor model L1210 Leukemia (intraperitoneal) in B6D2F1 (BDF1) mice
Settings: T/C endpoint: mean survival time, higher T/C = longer survival
[1] = dose: 400.0 mg/kg/injection, schedule: Q01DX009 (ip), vehicle: saline
[2] = dose: 400.0 mg/kg/injection, schedule: Q04DX003 (ip), vehicle: saline
[3] = dose: 400.0 mg/kg/injection, schedule: Q01DX001 (ip), vehicle: saline
[4] = dose: 200.0 mg/kg/injection, schedule: Q04DX002 (ip), vehicle: Klucel (hydroxypropylcellulose) (HPC)
[5] = dose: 400.0 mg/kg/injection, schedule: Q04DX002 (ip), vehicle: Klucel (hydroxypropylcellulose) (HPC)
[6] = dose: 50.0 mg/kg/injection, schedule: Q01DX009 (ip), vehicle: saline with Tween-80
[7] = dose: 400.0 mg/kg/injection, schedule: Q04DX003 (ip), vehicle: saline with Tween-80
[8] = dose: 100.0 mg/kg/injection, schedule: Q01DX009 (ip), vehicle: saline with Tween-80
[9] = dose: 200.0 mg/kg/injection, schedule: Q01DX009 (ip), vehicle: saline with Tween-80
[10] = dose: 400.0 mg/kg/injection, schedule: Q04DX003 (ip), vehicle: Klucel (hydroxypropylcellulose) (HPC)
[11] = dose: 400.0 mg/kg/injection, schedule: Q01DX001 (ip), vehicle: Klucel (hydroxypropylcellulose) (HPC)
[12] = dose: 100.0 mg/kg/injection, schedule: Q01DX009 (ip), vehicle: saline
[13] = dose: 200.0 mg/kg/injection, schedule: Q01DX009 (ip), vehicle: saline

SMILES: COC(=O)c1[nH]c(=O)[nH]c(=O)c1F
- T/C (dose: 2.0 mg/kg/injection, schedule: Q01DX Z (ip), vehicle: methylcellulose (MC)): 140 % of control
- T/C (dose: 5.0 mg/kg/injection, schedule: Q01DX Z (ip), vehicle: carboxymethylcellulose (CMC)): 133 % of control
- T/C (dose: 7.0 mg/kg/injection, schedule: Q01DX Z (ip), vehicle: carboxymethylcellulose (CMC)): 142 % of control
- T/C (dose: 8.0 mg/kg/injection, schedule: Q04DX003 (ip), vehicle: saline with Tween-80): 125 % of control
- T/C (dose: 12.0 mg/kg/injection, schedule: Q01DX Z (ip), vehicle: methylcellulose (MC)): 143 % of control
- T/C (dose: 16.0 mg/kg/injection, schedule: Q01DX009 (ip), vehicle: saline with Tween-80): 143 % of control
- T/C (dose: 16.0 mg/kg/injection, schedule: Q04DX003 (ip), vehicle: saline with Tween-80): 141 % of control
- T/C (dose: 17.0 mg/kg/injection, schedule: Q01DX Z (ip), vehicle: carboxymethylcellulose (CMC)): 149 % of control
- survivor count (dose: 60.0 mg/kg/injection, schedule: Q01DX Z (ip), vehicle: methylcellulose (MC)): 6 of 6
- survivor count (dose: 64.0 mg/kg/injection, schedule: Q01DX009 (ip), vehicle: saline with Tween-80): 6 of 6

SMILES: CC1=CCC2(C)CCC(C(C)C)C2(O)CC1 (stereo unspecified)
- survivor count [1]: 6 of 6

SMILES: CCC[N+](C)(C)CCCOC(=O)C1C2CC3OC(=O)C1C3C2 (stereo unspecified)
- survivor count [2]: 0 of 3

SMILES: COC(=O)C1=C(O)C(=O)N(c2ccccc2)C1
- survivor count (dose: 200.0 mg/kg/injection, schedule: Q01DX001 (ip), vehicle: saline with Tween-80): 1 of 3
- survivor count (dose: 400.0 mg/kg/injection, schedule: Q01DX001 (ip), vehicle: saline with Tween-80): 0 of 3

SMILES: CCN(CCNc1ccc(C)c2sc3ccccc3c(=O)c12)CC(C)(C)O
- T/C (dose: 90.0 mg/kg/injection, schedule: Q01DX009 (ip), vehicle: saline): 137 % of control
- T/C (dose: 133.0 mg/kg/injection, schedule: Q01DX009 (ip), vehicle: saline): 137 and 143 % of control
- T/C (dose: 200.0 mg/kg/injection, schedule: Q01DX009 (ip), vehicle: saline sonified): 131 % of control [5 of 6 alive]
- survivor count (dose: 800.0 mg/kg/injection, schedule: Q04DX003 (ip), vehicle: saline): 0 of 6

SMILES: COC(=O)c1ccc(NCC(=N)N)cc1
- survivor count [3]: 1 of 6

SMILES: CC12C(=O)OCC1C1CCC2C1 (stereo unspecified)
- survivor count (dose: 100.0 mg/kg/injection, schedule: Q04DX002 (ip), vehicle: Klucel (hydroxypropylcellulose) (HPC)): 1 of 3
- survivor count [4]: 0 of 3
- survivor count [5]: 0 of 3

SMILES: CC1(C)C2CCC(C2)C12CC(F)(F)C(F)(F)S2 (stereo unspecified)
- survivor count [6]: 4 of 6
- survivor count (dose: 100.0 mg/kg/injection, schedule: Q04DX003 (ip), vehicle: saline with Tween-80): 1 of 6
- survivor count (dose: 200.0 mg/kg/injection, schedule: Q04DX003 (ip), vehicle: saline with Tween-80): 0 of 6
- survivor count [7]: 0 of 6

SMILES: CCN(C(=O)c1ccc([N+](=O)[O-])cc1)C(c1ccccc1)P(=O)(c1ccccc1)c1ccccc1 (stereo unspecified)
- survivor count [6]: 3 of 3 and 6 of 6
- survivor count [8]: 3 of 3 and 6 of 6
- survivor count (dose: 100.0 mg/kg/injection, schedule: Q04DX002 (ip), vehicle: saline with Tween-80): 6 of 6
- survivor count [9]: 3 of 3
- survivor count (dose: 200.0 mg/kg/injection, schedule: Q04DX002 (ip), vehicle: saline with Tween-80): 3 of 3 and 6 of 6
- survivor count (dose: 400.0 mg/kg/injection, schedule: Q04DX002 (ip), vehicle: saline with Tween-80): 3 of 3

SMILES: CNc1cc(C(=O)O)nc(NC)n1
- survivor count (dose: 100.0 mg/kg/injection, schedule: Q01DX Z (ip), vehicle: saline): 1 of 6
- survivor count (dose: 200.0 mg/kg/injection, schedule: Q01DX Z (ip), vehicle: saline): 0 of 6

SMILES: NNC(=O)CNc1ccc(Cl)cc1
- survivor count [4]: 0 of 3 and 1 of 3
- survivor count [5]: 0 of 3

SMILES: CCOC(=O)c1cnc(C)nc1Nc1ccccc1F
- survivor count [10]: 0 of 6

SMILES: C=CCOc1ccccc1C
- survivor count [3]: 1 of 4

SMILES: IC1=CC2CCC(C1)C2 (stereo unspecified)
- survivor count (dose: 400.0 mg/kg/injection, schedule: Q01DX009 (ip), vehicle: acetone): 1 of 6

SMILES: CCC[CH2][Sn]([c]1ccccc1)([c]1ccccc1)[c]1ccccc1
- survivor count [7]: 2 of 6

SMILES: c1ccc(N2CCNCC2)cc1 (tested in a mixture with another compound)
- survivor count (dose: 80.0 mg/kg/injection, schedule: Q01DX001 (ip), vehicle: saline): 3 of 6 (2×)
- survivor count (dose: 100.0 mg/kg/injection, schedule: Q01DX001 (ip), vehicle: saline): 1 of 4 (3×)
- survivor count (dose: 200.0 mg/kg/injection, schedule: Q01DX001 (ip), vehicle: saline): 0 of 4 (2×) and 1 of 4
- survivor count [3]: 0 of 4 (4×)

SMILES: Nc1c2c(nc3ccccc13)CCCC2
- survivor count (dose: 6.25 mg/kg/injection, schedule: Q01DX009 (ip), vehicle: saline): 6 of 6
- survivor count (dose: 12.5 mg/kg/injection, schedule: Q01DX009 (ip), vehicle: saline): 6 of 6
- survivor count (dose: 25.0 mg/kg/injection, schedule: Q01DX009 (ip), vehicle: saline): 6 of 6

SMILES: CCCC(C)C1(CC)C(=O)NC(=O)NC1=O (stereo unspecified)
- survivor count (dose: 150.0 mg/kg/injection, schedule: Q01DX001 (ip), vehicle: saline): 2 of 6
- survivor count (dose: 160.0 mg/kg/injection, schedule: Q04DX003 (ip), vehicle: saline): 4 of 6
- survivor count (dose: 240.0 mg/kg/injection, schedule: Q01DX001 (ip), vehicle: saline): 0 of 6
- survivor count (dose: 300.0 mg/kg/injection, schedule: Q01DX001 (ip), vehicle: saline): 0 of 6
- survivor count (dose: 365.0 mg/kg/injection, schedule: Q01DX001 (ip), vehicle: saline): 0 of 6

SMILES: CC=NC(C)(C)C
- survivor count [8]: 3 of 3
- survivor count [9]: 2 of 3

SMILES: CCCCCC(O)C1C(=O)OC(C)C(O)/C=C/C=C/C=C/C=C\C=C(\C)C(O)CC(O)CC(O)CC(O)CC(O)CC(O)CC1O (stereo unspecified)
- survivor count (dose: 100.0 mg/kg/injection, schedule: Q01DX001 (ip), vehicle: carboxymethylcellulose (CMC)): 0 of 4
- survivor count (dose: 200.0 mg/kg/injection, schedule: Q01DX001 (ip), vehicle: carboxymethylcellulose (CMC)): 0 of 4
- survivor count (dose: 400.0 mg/kg/injection, schedule: Q01DX001 (ip), vehicle: carboxymethylcellulose (CMC)): 1 of 4

SMILES: c1ccc(C2=NC(c3ccccc3)N3CC23c2ccccc2)cc1 (stereo unspecified)
- survivor count [11]: 3 of 3

SMILES: O=C(O)C1C[n+]2ccccc2O1 (stereo unspecified)
- survivor count [12]: 5 of 6
- survivor count [13]: 3 of 6
- survivor count [2]: 3 of 6

SMILES: O=C(OC1(c2ccccc2)OC(=O)c2ccccc21)c1ccccc1C(=O)c1ccccc1 (stereo unspecified)
- survivor count [7]: 6 of 6

SMILES: O=S(=O)(O)c1ccc(S)cc1
- survivor count (dose: 150.0 mg/kg/injection, schedule: Q01DX001 (ip), vehicle: other): 0 of 6
- survivor count (dose: 300.0 mg/kg/injection, schedule: Q01DX001 (ip), vehicle: other): 0 of 6

SMILES: [Cl][Ge]([Cl])([c]1ccccc1)[c]1ccccc1
- survivor count (dose: 200.0 mg/kg/injection, schedule: Q01DX009 (ip), vehicle: Klucel (hydroxypropylcellulose) (HPC)): 5 of 6
- survivor count [10]: 1 of 6

SMILES: c1ccc(OP(Oc2ccccc2)c2ccccc2)cc1
- survivor count [1]: 2 of 6

SMILES: Cc1cc2[nH]c(=O)c(=O)[nH]c2cc1C
- survivor count (dose: 400.0 mg/kg/injection, schedule: Q01DX009 (ip), vehicle: Klucel (hydroxypropylcellulose) (HPC)): 1 of 6

SMILES: CC1=C(/C=C\C(C)=N\NC(=O)c2ccc[n+](C)c2)C(C)(C)CCC1
- survivor count [12]: 0 of 3
- survivor count [13]: 0 of 3

SMILES: CCOC(=O)Cc1ccc(N)cc1
- survivor count [11]: 3 of 3

Source: PubChem BioAssay AID248 (DTP/NCI, 2004)
